Experimental findings from PMC6533289 are described below.

By UniProt entry, the sequences of proteins in these tests, tags left out.
UniProt O94763: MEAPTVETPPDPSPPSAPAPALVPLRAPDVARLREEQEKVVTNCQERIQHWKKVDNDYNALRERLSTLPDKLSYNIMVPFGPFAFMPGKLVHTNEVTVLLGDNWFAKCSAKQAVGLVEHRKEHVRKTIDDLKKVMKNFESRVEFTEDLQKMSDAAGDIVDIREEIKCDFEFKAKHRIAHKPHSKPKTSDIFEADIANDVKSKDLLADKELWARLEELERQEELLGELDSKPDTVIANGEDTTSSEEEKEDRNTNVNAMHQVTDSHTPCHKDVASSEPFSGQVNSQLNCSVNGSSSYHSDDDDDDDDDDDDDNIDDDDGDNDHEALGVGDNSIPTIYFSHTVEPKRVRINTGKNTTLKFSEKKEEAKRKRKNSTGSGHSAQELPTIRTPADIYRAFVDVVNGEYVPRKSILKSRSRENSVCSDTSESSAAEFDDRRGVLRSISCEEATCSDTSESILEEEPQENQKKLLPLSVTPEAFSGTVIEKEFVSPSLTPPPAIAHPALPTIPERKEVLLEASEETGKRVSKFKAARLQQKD
UniProt O95602: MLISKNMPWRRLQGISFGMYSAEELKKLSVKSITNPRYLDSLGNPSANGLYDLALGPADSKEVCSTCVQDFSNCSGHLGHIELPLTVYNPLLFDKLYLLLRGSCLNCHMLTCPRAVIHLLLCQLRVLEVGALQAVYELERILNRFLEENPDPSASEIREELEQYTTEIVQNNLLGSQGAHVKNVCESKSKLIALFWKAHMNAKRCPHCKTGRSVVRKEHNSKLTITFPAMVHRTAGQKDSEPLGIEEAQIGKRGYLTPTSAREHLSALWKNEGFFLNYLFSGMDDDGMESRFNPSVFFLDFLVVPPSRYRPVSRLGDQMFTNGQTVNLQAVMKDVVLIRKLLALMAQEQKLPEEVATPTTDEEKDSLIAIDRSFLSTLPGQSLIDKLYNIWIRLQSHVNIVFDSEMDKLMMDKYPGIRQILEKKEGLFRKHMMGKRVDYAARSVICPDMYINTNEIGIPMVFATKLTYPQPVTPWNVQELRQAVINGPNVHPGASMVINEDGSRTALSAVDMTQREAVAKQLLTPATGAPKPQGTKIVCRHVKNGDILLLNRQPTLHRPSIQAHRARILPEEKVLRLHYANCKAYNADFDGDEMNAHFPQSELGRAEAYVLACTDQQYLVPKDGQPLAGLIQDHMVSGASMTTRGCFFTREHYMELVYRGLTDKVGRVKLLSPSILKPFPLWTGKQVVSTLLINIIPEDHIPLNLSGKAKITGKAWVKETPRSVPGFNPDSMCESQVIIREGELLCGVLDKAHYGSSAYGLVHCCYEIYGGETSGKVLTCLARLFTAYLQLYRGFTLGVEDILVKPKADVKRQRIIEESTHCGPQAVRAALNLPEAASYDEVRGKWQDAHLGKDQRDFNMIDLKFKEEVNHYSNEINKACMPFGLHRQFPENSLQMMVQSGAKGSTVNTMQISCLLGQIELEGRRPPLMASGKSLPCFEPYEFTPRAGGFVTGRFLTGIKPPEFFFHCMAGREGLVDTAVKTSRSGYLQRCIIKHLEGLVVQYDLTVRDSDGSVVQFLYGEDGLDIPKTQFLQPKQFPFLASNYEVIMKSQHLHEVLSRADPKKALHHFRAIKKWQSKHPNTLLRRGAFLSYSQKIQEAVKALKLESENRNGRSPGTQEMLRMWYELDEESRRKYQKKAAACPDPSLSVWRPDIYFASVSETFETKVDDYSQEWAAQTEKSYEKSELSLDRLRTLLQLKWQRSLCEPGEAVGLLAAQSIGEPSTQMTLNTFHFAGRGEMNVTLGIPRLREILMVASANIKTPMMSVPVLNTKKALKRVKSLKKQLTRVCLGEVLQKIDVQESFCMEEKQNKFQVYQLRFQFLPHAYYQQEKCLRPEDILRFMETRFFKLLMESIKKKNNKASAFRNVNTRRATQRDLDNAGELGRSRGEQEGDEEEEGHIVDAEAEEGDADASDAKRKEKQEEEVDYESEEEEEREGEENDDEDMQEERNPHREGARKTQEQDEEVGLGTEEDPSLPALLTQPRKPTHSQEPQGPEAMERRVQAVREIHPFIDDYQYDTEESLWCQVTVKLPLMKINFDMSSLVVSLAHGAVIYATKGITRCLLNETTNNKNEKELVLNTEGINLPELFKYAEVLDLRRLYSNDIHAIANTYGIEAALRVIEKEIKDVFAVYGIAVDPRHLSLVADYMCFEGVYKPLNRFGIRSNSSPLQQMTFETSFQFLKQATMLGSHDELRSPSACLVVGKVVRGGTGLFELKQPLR

Results are given in words; binding and its absence hold for the method and conditions named. In cells and extracts the contact can be indirect. Some entries that bind do so weakly or less than the wild type.

This experiment concerns the target unconventional prefoldin RPB5 interactor (URI1) (human (endogenous in A375-P, A2058, SK-MEL-28, UACC-62)) (UniProt O94763). As to the kind of experiment: co-IP; endogenous URI1 immunoprecipitated with anti-URI1 mAb clone 179-2-1 and Protein G Agarose from 900 μg lysate in TNN buffer (250 mM NaCl, 0.5% NP-40), 4 °C, mouse IgG control; immunoblot; A375-P, A2058, SK-MEL-28, UACC-62 cells treated with DMSO, 1 μM PLX4720 (12-48 h), AZD6244, or PLX4720 with Bortezomib. A general note: Immunoblotting shows a protein as a band on a membrane.

As to “POLR1A (polymerase RNA I DNA-directed polypeptide A) (from UniProt O95602 1-1720)”, the binding result is recorded as “binds”.

B1: POLR3A (polymerase RNA III DNA-directed polypeptide A) (protein, UniProt O14802 1-1390)
chain: MVKEQFRETDVAKKISHICFGMKSPEEMRQQAHIQVVSKNLYSQDNQHAPLLYGVLDHRMGTSEKDRPCETCGKNLADCLGHYGYIDLELPCFHVGYFRAVIGILQMICKTCCHIMLSQEEKKQFLDYLKRPGLTYLQKRGLKKKISDKCRKKNICHHCGAFNGTVKKCGLLKIIHEKYKTNKKVVDPIVSNFLQSFETAIEHNKEVEPLLGRAQENLNPLVVLNLFKRIPAEDVPLLLMNPEAGKPSDLILTRLLVPPLCIRPSVVSDLKSGTNEDDLTMKLTEIIFLNDVIKKHRISGAKTQMIMEDWDFLQLQCALYINSELSGIPLNMAPKKWTRGFVQRLKGKQGRFRGNLSGKRVDFSGRTVISPDPNLRIDEVAVPVHVAKILTFPEKVNKANINFLRKLVQNGPEVHPGANFIQQRHTQMKRFLKYGNREKMAQELKYGDIVERHLIDGDVVLFNRQPSLHKLSIMAHLARVKPHRTFRFNECVCTPYNADFDGDEMNLHLPQTEEAKAEALVLMGTKANLVTPRNGEPLIAAIQDFLTGAYLLTLKDTFFDRAKACQIIASILVGKDEKIKVRLPPPTILKPVTLWTGKQIFSVILRPSDDNPVRANLRTKGKQYCGKGEDLCANDSYVTIQNSELMSGSMDKGTLGSGSKNNIFYILLRDWGQNEAADAMSRLARLAPVYLSNRGFSIGIGDVTPGQGLLKAKYELLNAGYKKCDEYIEALNTGKLQQQPGCTAEETLEALILKELSVIRDHAGSACLRELDKSNSPLTMALCGSKGSFINISQMIACVGQQAISGSRVPDGFENRSLPHFEKHSKLPAAKGFVANSFYSGLTPTEFFFHTMAGREGLVDTAVKTAETGYMQRRLVKSLEDLCSQYDLTVRSSTGDIIQFIYGGDGLDPAAMEGKDEPLEFKRVLDNIKAVFPCPSEPALSKNELILTTESIMKKSEFLCCQDSFLQEIKKFIKGVSEKIKKTRDKYGINDNGTTEPRVLYQLDRITPTQVEKFLETCRDKYMRAQMEPGSAVGALCAQSIGEPGTQMTLKTFHFAGVASMNITLGVPRIKEIINASKAISTPIITAQLDKDDDADYARLVKGRIEKTLLGEISEYIEEVFLPDDCFILVKLSLERIRLLRLEVNAETVRYSICTSKLRVKPGDVAVHGEAVVCVTPRENSKSSMYYVLQFLKEDLPKVVVQGIPEVSRAVIHIDEQSGKEKYKLLVEGDNLRAVMATHGVKGTRTTSNNTYEVEKTLGIEAARTTIINEIQYTMVNHGMSIDRRHVMLLSDLMTYKGEVLGITRFGLAKMKESVLMLASFEKTADHLFDAAYFGQKDSVCGVSECIIMGIPMNIGTGLFKLLHKADRDPNPPKRPLIFDTNEFHIPLVT
Regarding B1, the binding entry is on record as “binds”.
